Measurements published in publication PMC6901934.
No constants are given. Whether binding was seen depends on the method and setting. Binding seen in cells or lysates may run through a third protein. Some binding calls cover weakened binding; strength is not graded here.

By UniProt entry, the sequences of proteins in these tests, tags left out.
UniProt P70288: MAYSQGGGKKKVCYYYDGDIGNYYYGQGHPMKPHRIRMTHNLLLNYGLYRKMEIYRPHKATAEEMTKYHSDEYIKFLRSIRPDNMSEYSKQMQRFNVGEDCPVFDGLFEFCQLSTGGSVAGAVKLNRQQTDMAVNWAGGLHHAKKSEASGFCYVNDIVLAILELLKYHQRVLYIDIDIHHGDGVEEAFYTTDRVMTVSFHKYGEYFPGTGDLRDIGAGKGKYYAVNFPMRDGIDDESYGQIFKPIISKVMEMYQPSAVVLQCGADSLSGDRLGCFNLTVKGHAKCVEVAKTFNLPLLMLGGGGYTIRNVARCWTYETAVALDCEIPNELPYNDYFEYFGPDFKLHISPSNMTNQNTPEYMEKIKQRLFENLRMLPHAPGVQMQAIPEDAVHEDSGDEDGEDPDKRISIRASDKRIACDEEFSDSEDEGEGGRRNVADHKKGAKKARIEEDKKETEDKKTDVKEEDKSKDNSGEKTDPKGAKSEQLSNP
UniProt O09106: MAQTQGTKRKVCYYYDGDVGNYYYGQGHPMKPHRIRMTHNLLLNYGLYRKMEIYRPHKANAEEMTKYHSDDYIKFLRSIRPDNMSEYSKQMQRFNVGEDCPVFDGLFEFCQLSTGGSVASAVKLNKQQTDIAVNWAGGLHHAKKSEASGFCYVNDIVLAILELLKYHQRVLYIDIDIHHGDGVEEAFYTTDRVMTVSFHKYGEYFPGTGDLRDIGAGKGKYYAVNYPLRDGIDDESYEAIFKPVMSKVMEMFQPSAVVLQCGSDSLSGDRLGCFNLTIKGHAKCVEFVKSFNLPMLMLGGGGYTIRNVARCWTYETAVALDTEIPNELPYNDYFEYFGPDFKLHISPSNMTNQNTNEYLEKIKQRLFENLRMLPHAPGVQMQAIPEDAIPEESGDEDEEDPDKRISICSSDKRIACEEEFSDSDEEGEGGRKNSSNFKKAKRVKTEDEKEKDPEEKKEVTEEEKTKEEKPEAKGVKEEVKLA
UniProt P54726: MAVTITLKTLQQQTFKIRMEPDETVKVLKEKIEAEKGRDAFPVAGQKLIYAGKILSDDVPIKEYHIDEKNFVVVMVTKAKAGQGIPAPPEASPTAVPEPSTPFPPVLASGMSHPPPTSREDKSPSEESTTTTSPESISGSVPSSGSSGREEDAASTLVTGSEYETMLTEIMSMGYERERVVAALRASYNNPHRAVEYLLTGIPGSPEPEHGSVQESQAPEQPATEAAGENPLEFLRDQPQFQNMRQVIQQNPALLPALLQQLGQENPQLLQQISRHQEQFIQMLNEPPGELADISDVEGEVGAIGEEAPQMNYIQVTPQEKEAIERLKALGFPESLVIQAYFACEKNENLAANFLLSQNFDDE

T1: Ube3a (mouse (endogenous in mouse cortex)) (UniProt O08759)
T1 sequence: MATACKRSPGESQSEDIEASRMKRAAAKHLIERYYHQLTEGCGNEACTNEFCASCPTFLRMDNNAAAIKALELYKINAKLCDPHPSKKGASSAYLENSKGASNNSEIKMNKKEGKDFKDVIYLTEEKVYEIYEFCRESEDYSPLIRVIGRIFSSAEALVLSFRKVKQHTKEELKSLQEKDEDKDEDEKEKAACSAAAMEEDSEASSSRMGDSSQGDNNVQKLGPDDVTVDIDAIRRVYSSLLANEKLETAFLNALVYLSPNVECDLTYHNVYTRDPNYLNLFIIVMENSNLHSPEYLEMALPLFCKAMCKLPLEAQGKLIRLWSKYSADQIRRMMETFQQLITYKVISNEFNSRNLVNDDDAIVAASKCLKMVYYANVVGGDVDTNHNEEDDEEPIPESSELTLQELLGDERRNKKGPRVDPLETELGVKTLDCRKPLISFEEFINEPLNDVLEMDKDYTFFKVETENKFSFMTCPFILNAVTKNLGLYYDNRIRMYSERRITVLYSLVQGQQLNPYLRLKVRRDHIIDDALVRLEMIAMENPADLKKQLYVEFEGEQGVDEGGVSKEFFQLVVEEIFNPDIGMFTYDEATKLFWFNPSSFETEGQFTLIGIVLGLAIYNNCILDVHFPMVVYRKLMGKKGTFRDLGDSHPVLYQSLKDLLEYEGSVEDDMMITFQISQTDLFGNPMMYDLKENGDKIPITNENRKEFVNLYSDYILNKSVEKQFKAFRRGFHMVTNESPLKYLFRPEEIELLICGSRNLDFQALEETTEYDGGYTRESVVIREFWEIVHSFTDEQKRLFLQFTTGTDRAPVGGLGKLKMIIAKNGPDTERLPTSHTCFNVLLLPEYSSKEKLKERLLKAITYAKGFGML


Legend:
[1] = biological target: T1, Ube3a (mouse (endogenous in mouse cortex)); test: co-IP; cortical lysates from wild type mice (P60) immunoprecipitated with Ube3a antibody (Sigma); blots probed with Ube3a, HDAC1, HDAC2 and RAD23A antibodies
[2] = biological target: histone deacetylase 2 (HDAC2) (mouse (endogenous in mouse cortex)) (UniProt P70288); test: co-IP; reverse co-IP: brain lysates (wild type and AS samples) immunoprecipitated with HDAC2 antibody (Cell Signalling Technology); blots detected with HDAC2, Ube3a and ubiquitin antibodies

Molecule | binding [1] | binding [2]
HDAC1 (from UniProt O09106 1-482) | no binding | 
RAD23A (from UniProt P54726 1-363) | binds | 
histone deacetylase 2 (HDAC2) (from UniProt P70288 1-488) | no binding | 
Ube3a (protein, UniProt O08759 1-870) MATACKRSPGESQSEDIEASRMKRAAAKHLIERYYHQLTEGCGNEACTNEFCASCPTFLRMDNNAAAIKALELYKINAKLCDPHPSKKGASSAYLENSKGASNNSEIKMNKKEGKDFKDVIYLTEEKVYEIYEFCRESEDYSPLIRVIGRIFSSAEALVLSFRKVKQHTKEELKSLQEKDEDKDEDEKEKAACSAAAMEEDSEASSSRMGDSSQGDNNVQKLGPDDVTVDIDAIRRVYSSLLANEKLETAFLNALVYLSPNVECDLTYHNVYTRDPNYLNLFIIVMENSNLHSPEYLEMALPLFCKAMCKLPLEAQGKLIRLWSKYSADQIRRMMETFQQLITYKVISNEFNSRNLVNDDDAIVAASKCLKMVYYANVVGGDVDTNHNEEDDEEPIPESSELTLQELLGDERRNKKGPRVDPLETELGVKTLDCRKPLISFEEFINEPLNDVLEMDKDYTFFKVETENKFSFMTCPFILNAVTKNLGLYYDNRIRMYSERRITVLYSLVQGQQLNPYLRLKVRRDHIIDDALVRLEMIAMENPADLKKQLYVEFEGEQGVDEGGVSKEFFQLVVEEIFNPDIGMFTYDEATKLFWFNPSSFETEGQFTLIGIVLGLAIYNNCILDVHFPMVVYRKLMGKKGTFRDLGDSHPVLYQSLKDLLEYEGSVEDDMMITFQISQTDLFGNPMMYDLKENGDKIPITNENRKEFVNLYSDYILNKSVEKQFKAFRRGFHMVTNESPLKYLFRPEEIELLICGSRNLDFQALEETTEYDGGYTRESVVIREFWEIVHSFTDEQKRLFLQFTTGTDRAPVGGLGKLKMIIAKNGPDTERLPTSHTCFNVLLLPEYSSKEKLKERLLKAITYAKGFGML |  | no binding
